From PubChem BioAssay AID463205 (Broad Institute, 2010)
Among all 2,400 compounds or so, about 20 (0.8%) were called active.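 How the source made its calls: active means AC50 no more than ten times the highest tested concentration, or full inhibition at every dose giving a flat fit (cut at about 30 µM in these data); inconclusive means flat fit with activity between 30% and 70%, or poor-quality invalid fit; inactive means AC50 more than ten times the top tested dose.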 The list shows a part of the results.

experiment: luciferase-based ADP detection interference – biochemical, luminescence, cell-free, homogeneous, artefact control for GSK-3a inhibitor project, dose response (AID 463205); conditions: Cell-free ADP-Glo detection reagents, 5 uM ADP;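 further: kinase-free counter-screen against the ADP-Glo detection reagents only; potency is for inhibitors that reduce the luminescence signal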

AC50, inactive:
Cc1ccc(N(Cc2ccc([N+](=O)[O-])cc2)C(=O)c2ccco2)cc1C > 30 µM
CS(=O)(=O)Nc1ccc(-c2ccc(/C=C3\SC(N)=NC3=O)o2)cc1 > 30 µM
O=C(O)c1cc2ncc(-c3[nH]ncc3[N+](=O)[O-])cn2n1 > 30 µM
Nc1ccc2c(c1)C(=O)c1ccccc1C2=O > 30 µM
COc1ccc(-c2nnc(SCC(=O)Nc3ccccc3OC)o2)cc1 > 30 µM
O=C(Nc1ccc(C(=O)NC2CCCCC2)cc1)c1cccnc1 > 30 µM
CCOc1ccc2ncc(S(=O)(=O)c3ccccc3)c(N3CCN(c4ccc(OC)cc4)CC3)c2c1 > 30 µM
CCOc1ccc(-c2ncncc2-c2ccc(OC)cc2)c(O)c1 > 30 µM
S=C(Nc1cccnc1)Nc1ccccn1 > 30 µM
COc1ccc(-c2csc3nc(C)nc(N4CCC(C)CC4)c23)cc1OC > 30 µM
O=C1NC(=O)/C(=C/c2ccc(-c3cc(C(=O)O)ccc3Cl)o2)S1 > 30 µM
NS(=O)(=O)c1ccc(N=Nc2ccc(=O)[nH]c2O)cc1 > 30 µM
O=C(Oc1cccc(NC(=O)c2ccco2)c1)c1cccc(S(=O)(=O)N2CCCCC2)c1 > 30 µM
Cc1sc2ncnc(NCCCN3CCCC3=O)c2c1C > 30 µM
CCOC(=O)c1c(NC(=O)CN2C(=O)NC3(CCCCC3C)C2=O)sc(C)c1C (stereo not given) > 30 µM
O=S(=O)(Nc1ccccc1O)c1cccc2cccnc12 > 30 µM
Nc1nc(N)nc(-c2cc(F)ccc2O)n1 > 30 µM
Cc1c(C(=O)OCCOC(C)C)[nH]c2c1C(=O)CC(c1ccco1)C2 (stereo not given) > 30 µM
NS(=O)(=O)c1cccc(NC(=O)CSc2nnc(-c3ccccc3)o2)c1 > 30 µM
NC(=O)c1cc([N+](=O)[O-])ccc1NCc1cccc([N+](=O)[O-])c1 > 30 µM
CCOc1ccc(/C=N/NC(=O)c2nnn(-c3nonc3N)c2CN2CCC(C)CC2)cc1 > 30 µM
CC1CCCCC1NC(=O)C(=O)NCC1CCCO1 (stereo not given) > 30 µM
Cc1nnc(SCC(=O)N2c3ccccc3CC2C)s1 (stereo not given) > 30 µM
CCc1ccc(NC(=S)NC(=O)CC(C)C)cc1 > 30 µM
O=c1cc(-c2ccccc2)[nH]n1-c1ccc([N+](=O)[O-])cc1 > 30 µM
C/C(CC(=O)Nc1ccc(Cl)cc1Cl)=N\NC(=O)C(=O)N1CCCC1 > 30 µM
Cc1ccsc1C1C2=C(CC(C)(C)CC2=O)Nc2ncnn21 (stereo not given) > 30 µM
Cc1ccc(Cn2nc(-c3ccccc3)nc2-c2ccccc2)cc1 > 30 µM
S=C(NCc1ccccc1)NCc1ccc2c(c1)OCO2 > 30 µM
CCOC(=O)c1sc(N)c(C(N)=O)c1C > 30 µM
COc1cc(CN2CCCN(C)CC2)c([N+](=O)[O-])cc1OC > 30 µM
O=C1c2ccccc2-c2onc3ccc(NCc4ccco4)c1c23 > 30 µM
CC1(C)Cc2cccc(C(=O)Nc3ccncc3)c2O1 > 30 µM
COc1cccc(NC(=O)c2cnc[nH]2)c1 > 30 µM
COc1ccc2cc(C(=O)NCc3ccco3)c(=O)oc2c1 > 30 µM
CCCCSc1nc(C)[nH]c1[N+](=O)[O-] > 30 µM
Cc1ccc(CSc2nnc(-c3cccnc3)o2)cc1 > 30 µM
Cc1ccc(Sc2ccc(NC(=O)CCl)cc2)cc1C > 30 µM
CC(=O)Nc1ccc(NC(=O)CSc2nnc(-c3ccc4c(c3)OCO4)o2)cc1 > 30 µM
CCN1CCN(c2nc(Nc3ccccc3F)nc(N)c2[N+](=O)[O-])CC1 > 30 µM
O=C(CNC(=O)c1ccccc1)N/N=C/C=C/c1ccccc1 > 30 µM
Clc1ccc(C2=Nn3c(nnc3-c3cccnc3)SC2)s1 > 30 µM
Cc1c(C(=O)OC(C)C)[nH]c2c1C(=O)CC(C)(C)C2 > 30 µM
CSc1ncccc1-c1nc2ccccc2[nH]1 > 30 µM
CCN(CC)CCCN(Cc1cc2cc3c(cc2[nH]c1=O)OCO3)C(=O)Nc1ccccc1OC > 30 µM
CCOCCOC(=O)c1[nH]c2c(c1C)C(=O)CC(c1cc(OC)c(OC)c(OC)c1)C2 (stereo not given) > 30 µM
CCCCc1cc(=O)oc2cc(O)ccc12 > 30 µM
Cn1c(=O)c2[nH]c(CNc3ccc(C(=O)O)cc3)nc2n(C)c1=O > 30 µM
Cc1cccc(-n2ncc(C#N)c2-n2cccc2)c1 > 30 µM
CC1=C(C(=O)OCc2ccc3c(c2)OCO3)C(c2ccccc2OCc2ccccc2)NC(=O)N1 (stereo not given) > 30 µM
Cn1c(SCc2nc(-c3ccc(Cl)cc3)no2)nnc1-c1ccccc1 > 30 µM
O=C(O)COc1ccc2c(c1)O/C(=C\c1cccs1)C2=O > 30 µM
COc1ccc2[nH]c(=O)c3c(c2c1)OC(C)(C)C=C3 > 30 µM
COc1cc2c(C#N)c(N3CCCCC3)nc(N)c2c(N)n1 > 30 µM
CC1=C(C(=O)OCc2ccc3c(c2)OCO3)C(c2ccccc2)NC(=O)N1 (stereo not given) > 30 µM
COc1ccc(C2NC(=O)NC(C)=C2C(=O)OCc2ccc3c(c2)OCO3)cc1OC (stereo not given) > 30 µM
Cc1nc(SCC(=O)Nc2nc3ccccc3s2)n[nH]1 > 30 µM
CC1=C(C(=O)OCc2ccc3c(c2)OCO3)C(c2cccc([N+](=O)[O-])c2)NC(=O)N1 (stereo not given) > 30 µM
c1ccc(-c2nc3ccccc3[nH]2)cc1 > 30 µM
CCN(C(=O)C1CCCN1S(=O)(=O)c1cccc2nsnc12)c1ccccc1 (stereo not given) > 30 µM

By substructure, the compounds so far with a COOH group
AC50, inactive:
O=C(O)c1cc2ncc(-c3[nH]ncc3[N+](=O)[O-])cn2n1 > 30 µM
O=C1NC(=O)/C(=C/c2ccc(-c3cc(C(=O)O)ccc3Cl)o2)S1 > 30 µM
Cn1c(=O)c2[nH]c(CNc3ccc(C(=O)O)cc3)nc2n(C)c1=O > 30 µM
O=C(O)COc1ccc2c(c1)O/C(=C\c1cccs1)C2=O > 30 µM
